Experimental data: PubChem BioAssay AID1688 (National Center for Advancing Translational Sciences (NCATS), 2009)
The campaign covered roughly 220,000 compounds. About 2,400 (1.1%) were called active. Inconclusive means that the source gave no clear call. Such entries were picked first, then a sample of the others. Calls follow the shape of the dose curve; as a rule, active = well fitted inhibition curve with a large enough effect; inconclusive = small, poorly fitted or top-dose-only effect, or effect the other way; inactive = no such curve, though single readings can be large or run the other way. Potencies of inconclusive entries are doubtful fits and often do not repeat.
% is scaled to controls: 0 for no effect and ±100 for the full control effect; potency is read from the fitted curve at half-maximal effect.

Assay: qHTS Multiplex Assay to Identify Dual Action Probes in a Cell Model of Huntington: Aggregate Formation (GFP); also: nearly all actives have a fitted effect of over 60% in size
Conditions: PC12 HttQ103-GFP aggregates, Acumen cytometry, 40 h; activity change, negative = inhibition: at 46.1 µM (top of the series) unless noted
How it was run: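 Aggregate formation scored by laser-scanning cytometer (488 excitation, 500–530 emission) in lysed PC12 cells expressing Q103-GFP after 100 nM tebufenozide induction; library tested in dose series, with ATPLite reagent added in the multiplex.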
In the case of Cc1c(NC(=S)N/N=C/C=C/c2ccc([N+](=O)[O-])cc2)c(=O)n(-c2ccccc2)n1C, the Potency is reported as “inactive”. For C/C(=N\N1CCN(c2ccc(Cl)cc2)CC1)c1ccco1, the Potency was inconclusive: 5.62 µM [activator, single point]. In the case of CS(=O)(=O)c1ccc2nc(NC(=O)c3cccc(NS(=O)(=O)c4ccc(F)c(F)c4)c3)sc2c1, the Potency is reported as inconclusive: 35.5 µM [inhibitor, single point]. With CCc1cccc(CC)c1NC(=O)/C(C#N)=C/c1ccccc1C(F)(F)F the Potency was “inactive”. For CCCC(=O)N1CCN(c2ccc(NC(=O)c3ccc([N+](=O)[O-])o3)cc2Cl)CC1, the Potency was inconclusive: 35.5 µM [inhibitor, single point]. For Cn1c(SCC(=O)N/N=C/C=C\c2ccco2)nc2ccccc21, the Potency was “inactive”. For OC1NC(=S)N(c2ccccc2)C1O (configuration not stated), the activity change, negative = inhibition was inactive: 11% [at 9.22 µM]. For Cc1cc(C(=O)CSc2nnnn2C)c(C)n1Cc1ccco1, the activity change, negative = inhibition was inactive: 4.7% [at 9.22 µM]. In the case of Cc1c(C(=O)O)cccc1-c1ccc(/C=N/Nc2ccc(Br)cc2)o1, the Potency is reported as inconclusive: 3.16 µM [activator, full curve, poor fit]. With O=C(CN1CCN(Cc2ccccc2)CC1)NCCNc1ccc([N+](=O)[O-])cn1 the Potency was “inactive”. For CCCN(CCC)C(=O)Nc1cc(Cl)ccc1OC, the activity change, negative = inhibition was inactive: -8.02% [at 9.22 µM]. In the case of CCn1c(CNC(=O)c2ccccc2F)nnc1SCc1nc2ccccc2c(=O)[nH]1, the Potency is reported as “inactive”. With N=c1c2c(-c3ccccc3)c(-c3ccccc3)n(Cc3ccccc3)c2ncn1CCO the Potency was inconclusive: 25.1 µM [inhibitor, single point]. In the case of O=C(Nc1ccccc1)C(=O)Nc1cccnc1, the activity change, negative = inhibition is reported as inactive: -5.68% [at 9.22 µM]. In the case of COc1ccc(S(=O)(=O)N2CCN(CC(=O)Nc3cc(OC)cc(OC)c3)CC2)cc1, the Potency is reported as “inactive”. For COc1ccccc1CNC(=O)c1cn(C)c2ccc(S(=O)(=O)N3CCCCC3)cc2c1=O, the Potency was “inactive”. With O=C(/C=C/c1ccco1)NC(=S)Nc1ccc(Cl)cn1 the Potency was inconclusive: 35.5 µM [activator, single point]. With COc1ccc(CCN(C)CCCC(C#N)(c2cc(OC)c(OC)c(OC)c2)C(C)C)cc1OC (configuration not stated) the Potency was “inactive”. With CCc1nc(Cl)c(C#N)c2c1CCCC2 the Potency was active: 11.2 µM. In the case of Fc1ccc(-c2cc3nc(-c4ccccc4)cc(N4CCN(CCN5CCOCC5)CC4)n3n2)cc1, the Potency is reported as inconclusive: 35.5 µM [inhibitor, single point]. With S=C(NCCSCc1c(Cl)cccc1Cl)Nc1ccccc1 the Potency was inconclusive: 31.6 µM [inhibitor, single point]. With Cc1nc2ccccn2c1C(=O)N/N=C/c1cc(C)n(-c2ccc(Cl)cc2)c1C the Potency was “inactive”. With CCOC(=O)c1c(-c2ccc(F)cc2)csc1NC(=O)CCN1C(=O)c2ccccc2C1=O the Potency was inconclusive: 2.82 µM [inhibitor, single point]. With O=S(=O)(c1ccc(NC(=S)NC2CC2)cc1)N1CCOCC1 the activity change, negative = inhibition was inactive: 5.23% [at 9.22 µM]. With N#CC1=C(N)Oc2cc(N)ccc2C1c1ccc(F)cc1 (configuration not stated) the Potency was “inactive”. For COc1cc(C(=O)O)ccc1OCc1c(C)noc1C, the Potency was inconclusive: 2.82 µM [inhibitor, single point]. With O=[N+]([O-])c1ccccc1C1Nc2cccc3cccc(c23)N1 the Potency was inconclusive: 1.26 µM [activator, partial curve, poor fit]. For CC[C@H](C)C(=O)O[C@H]1CCC=C2C=C[C@H](C)[C@H](CC[C@@H]3C[C@@H](O)CC(=O)O3)[C@H]21, the Potency was inconclusive: 1 µM [inhibitor, full curve, poor fit]. With CC1(C)CC(=O)c2sc(NC(=O)CCS(=O)(=O)c3ccccc3)nc2C1 the Potency was inconclusive: 3.16 µM [activator, single point]. With Cc1ccc(C(C)C)c(OCc2nn(CC(=O)c3ccc(Cl)cc3)c3[n+]2CCCCC3)c1 the Potency was inconclusive: 14.1 µM [inhibitor, partial curve]. For O=C(CSc1ncnc2c1oc1ccccc12)N1CCc2ccccc2C1, the Potency was “inactive”. In the case of COc1ccc(-c2nn(-c3ccccc3)cc2C(=O)Nc2nccs2)cc1OC, the Potency is reported as inconclusive: 12.6 µM [inhibitor, partial curve, poor fit]. With CN(C)c1nc(N)nc(CSc2nnnn2-c2cccc3ccccc23)n1 the Potency was inconclusive: 31.6 µM [inhibitor, partial curve]. With C/C(=N\Nc1ccc([N+](=O)[O-])cc1)c1ccc(N2CCOCC2)cc1 the activity change, negative = inhibition was inactive: 8.18% [at 9.22 µM]. In the case of N#Cc1c(N2CCN(C(=O)c3ccccc3)CC2)nc(-c2ccccc2)c2c1CCCC2, the Potency is reported as inconclusive: 35.5 µM [inhibitor, single point]. With COc1c2occc2c(OC)c2c(=O)cc(C)oc12 the Potency was “inactive”. For O=c1nc(SCc2ccc(Cl)cc2)nc(-c2ccccc2)[nH]1, the activity change, negative = inhibition was inactive: -15.9% [at 9.22 µM]. For COc1ccc2oc(=O)c(/C(C)=N/Nc3ccccc3)cc2c1, the Potency was “inactive”. With O=C(CSc1ncccc1-c1nc2ccccc2[nH]1)Nc1ccc2c(c1)OCCO2 the Potency was inconclusive: 0.562 µM [activator, partial curve, poor fit]. In the case of CC(=O)c1ccc(NC(=O)c2ccc3nc(-c4ccco4)c(-c4ccco4)nc3c2)cc1, the Potency is reported as “inactive”. For Cc1nn(-c2ccccc2)c(N2CCCC2)c1/C=N/NC(=O)c1cc(-c2ccccc2)nc2ccccc12, the Potency was “inactive”. In the case of O=C1NC(c2ccccc2)C(C(=O)c2cccs2)=C1O (configuration not stated), the Potency is reported as inconclusive: 0.0891 µM [activator, partial curve, poor fit]. With O=C(c1ccc(Cl)c(S(=O)(=O)N2CCCCCC2)c1)N1CCN(c2ccccc2O)CC1 the Potency was inconclusive: 11.2 µM [inhibitor, partial curve]. For Fc1cccc(C[n+]2csc3ccccc32)c1, the Potency was “inactive”. With CSc1nsc(/C=C/Nc2ccc(O)cc2C)c1C#N the Potency was “inactive”. For O=C(c1nn2c(C(F)(F)F)cc(-c3cccs3)nc2c1Br)N1CCCc2ccccc21, the Potency was inconclusive: 4.47 µM [inhibitor, full curve, poor fit]. For COc1ccc(S(=O)(=O)N2CCCCCC2)cc1N, the Potency was “inactive”. For Cc1ccccc1C(=O)N1CCN(c2ccc(NC(=O)CSc3ccc(Cl)cc3)cc2)CC1, the Potency was inconclusive: 8.91 µM [inhibitor, partial curve, poor fit]. In the case of CCOC(=O)/C=c1\s/c(=C\c2ccccc2C)c(=O)n1CC(=O)NCc1ccc2c(c1)OCO2, the Potency is reported as inconclusive: 35.5 µM [activator, single point]. With CCN(CC(=O)c1c(N)n(C)c(=O)n(C)c1=O)c1cccc2ccccc12 the Potency was inconclusive: 3.55 µM [inhibitor, single point]. With CCOC(=O)c1c(NC(=O)c2cc3n(n2)C(C(F)(F)F)CC(c2cccs2)N3)sc(C)c1C (configuration not stated) the Potency was inconclusive: 2.82 µM [inhibitor, single point]. With CC/C(=N\NC(=O)c1ccc(CN(C)S(=O)(=O)c2ccc(C)cc2)cc1)c1ccc(OC(F)F)cc1 the Potency was “inactive”. With O=C(c1cn(-c2ccccc2)nc1-c1cccs1)N1CCN(c2ccccc2)CC1 the Potency was inconclusive: 20 µM [inhibitor, single point]. For CCN(CC)CCNCc1ccc(-c2ccc(Cl)cc2)o1, the Potency was inconclusive: 25.1 µM [inhibitor, partial curve, poor fit]. In the case of CCOC(=O)c1ccc(N2N=C(C)/C(=C/C=C/c3ccco3)C2=O)cc1, the Potency is reported as inconclusive: 12.6 µM [activator, single point]. With COCCCNC(=O)CSc1nc2ccccc2c(=O)n1CCC(=O)NCCc1ccc(OC)c(OC)c1 the Potency was “inactive”. In the case of O=C(c1cc2ccccc2oc1=O)N(Cc1cccs1)Cc1ccccc1Cl, the Potency is reported as inconclusive: 12.6 µM [inhibitor, partial curve]. For C=CCn1c(C)cc(-c2csc(N)n2)c1C, the Potency was “inactive”. In the case of Nc1nc(-c2ccccn2)nc(N)c1Cc1ccc(Cl)cc1Cl, the Potency is reported as inconclusive: 20 µM [inhibitor, single point]. In the case of COc1ccc(S(=O)(=O)NC(C)(C)C)cc1-c1nnc2c3ccccc3c(C)nn12, the Potency is reported as “inactive”. With O=C(N/N=C/c1ccc([N+](=O)[O-])s1)c1ccccc1 the Potency was inconclusive: 35.5 µM [inhibitor, single point]. With Fc1ccc(COc2ccccc2C(=S)N2CCCC2)cc1 the Potency was “inactive”. With C=CCc1cccc(CNc2nc3ccccc3n2C(C)C)c1O the Potency was active: 17.8 µM. In the case of OCc1nc2ccccc2n1CC(O)Cn1ccc2ccccc21 (configuration not stated), the Potency is reported as inconclusive: 20 µM [inhibitor, partial curve, poor fit]. In the case of O=C(OCn1ncc(Br)c(Br)c1=O)c1ccc(F)cc1, the Potency is reported as active: 3.98 µM. In the case of C[n+]1c2n(c3ccccc31)N=C(c1ccccc1)CS2, the Potency is reported as active: 10 µM. For Oc1[nH]c(=S)sc1/C=C1\C(c2ccccc2)=Nc2ccccc21, the Potency was inconclusive: 3.16 µM [inhibitor, full curve]. For O=[N+]([O-])c1cccc(N/N=C/c2cccc(O)c2O)c1, the activity change, negative = inhibition was inactive: 15.3% [at 9.22 µM]. In the case of O=C(CSc1nnc(Cn2nnc3ccccc32)o1)N(Cc1ccc(Cl)cc1)c1ccccc1, the Potency is reported as active: 7.08 µM. For Nc1nonc1-c1nc2ccccc2n1Cc1ccccc1, the Potency was inconclusive: 5.01 µM [activator, partial curve, poor fit]. For O=C(O)CCN1C(=O)/C(=C\c2ccncc2)SC1=S, the Potency was inconclusive: 8.91 µM [activator, partial curve]. For Cc1ccc(C(=O)NC(=S)NCCCN2CCOCC2)cc1, the Potency was inconclusive: 6.31 µM [activator, single point].
